The supplement of paper PMC10331698
± gives the standard deviation of the averaged measurements. Most values lie at the level of the controls, where differences are scatter.

Key:
Assay in all cases: level (log10 ratio to DMSO vehicle control); higher = higher biomarker level / cell amount than vehicle control
[1] = compound: OCC(F)(F)C(F)(F)C(F)(F)C(F)(F)C(F)(F)C(F)(F)CO [1H,1H,8H,8H-Perfluorooctane-1,8-diol] (in DMSO); details: 2200 nM
Procedure: (§1)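 BioMAP Diversity Plus panel of 12 human primary cell co-culture systems (3C, 4H, LPS, SAg, BT, BF4T, BE3C, CASM3C, HDF3CGF, KF3CT, MyoF, Mphg). Compounds were added 1 h before stimulation and left for 24 h (MyoF 48 h; BT 72 h for soluble read-outs or 6 d for IgG). Biomarkers were read by ELISA, cytotoxicity by SRB, PBMC viability and proliferation by Alamar Blue. Each well value was divided by the mean of 8 DMSO control wells on the same plate and log10 transformed; duplicate blinded samples were tested at 4 concentrations.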

[2] = compound: C=C(C)C(=O)OCCC(F)(F)C(F)(F)C(F)(F)C(F)(F)C(F)(F)C(F)(F)F [6:2 Fluorotelomer methacrylate] (in DMSO); details: 2200 nM
Procedure: as §1

[3] = compound: OCC(F)(F)OC(F)(F)C(F)(F)OC(F)(F)CO [1H,1H,8H,8H-Perfluoro-3,6-dioxaoctane-1,8-diol] (in DMSO); details: 2200 nM
Procedure: as §1

Hexafluoroglutaric acid = compound: O=C(O)C(F)(F)C(F)(F)C(F)(F)C(=O)O [Hexafluoroglutaric acid] (in DMSO)
Procedure: as §1

[4] = compound: O=C(O)C(F)(F)C(F)(F)C(F)(F)OC(F)(C(F)(F)F)C(F)(F)F [Perfluoro-4-isopropoxybutanoic acid] (in DMSO); details: 2200 nM
Procedure: as §1

[5] = compound: FC(F)(F)C(F)(F)C(F)(F)C(F)(F)CCI [1H,1H,2H,2H-Perfluorohexyl iodide] (in DMSO); details: 2200 nM
Procedure: as §1

[6] = compound: FC(F)(F)C(F)(F)CNCC(F)(F)C(F)(F)F [Bis(1H,1H-perfluoropropyl)amine] (in DMSO); details: 2200 nM
Procedure: as §1

[7] = compound: O=C(O)C(F)(OC(F)(F)C(F)(F)C(F)(F)F)C(F)(F)F [Ammonium perfluoro-2-methyl-3-oxahexanoate] (in Water)
Procedure: as §1

[8] = compound: O=S(=O)(O)C(F)(F)C(F)(F)C(F)(F)C(F)(F)F [Perfluorobutanesulfonic acid] (in DMSO)
Procedure: as §1

[9] = compound: O=C(O)CCC(F)(F)C(F)(F)C(F)(F)F [3:3 Fluorotelomer carboxylic acid] (in DMSO); details: 2200 nM
Procedure: as §1

[10] = compound: OCC(F)(F)C(F)(F)C(F)(F)C(F)F [1H,1H,5H-Perfluoropentanol] (in DMSO); details: 2200 nM
Procedure: as §1

[11] = compound: OCCCC(F)(F)C(F)(F)C(F)(F)C(F)(F)C(F)(F)C(F)(F)C(F)(F)C(F)(F)F [3-(Perfluorooctyl)propanol] (in DMSO); details: 2200 nM
Procedure: as §1

[12] = compound: CNS(=O)(=O)C(F)(F)C(F)(F)C(F)(F)C(F)(F)C(F)(F)C(F)(F)C(F)(F)C(F)(F)F [N-Methylperfluorooctanesulfonamide] (in DMSO); details: 2200 nM
Procedure: as §1

[13] = compound: O=C(O)C(F)(OC(F)(F)C(F)(OC(F)(F)C(F)(OC(F)(F)C(F)(F)C(F)(F)F)C(F)(F)F)C(F)(F)F)C(F)(F)F [Perfluoro-(2,5,8-trimethyl-3,6,9-trioxadodecanoic)acid] (in DMSO); details: 370 nM
Procedure: as §1

[14] = compound: FC(F)(F)COC(OCC(F)(F)F)OCC(F)(F)F [tris(Trifluoroethoxy)methane] (in DMSO); details: 2200 nM
Procedure: as §1

Perfluorohexanoic acid = compound: O=C(O)C(F)(F)C(F)(F)C(F)(F)C(F)(F)C(F)(F)F [Perfluorohexanoic acid] (in DMSO)
Procedure: as §1

[15] = compound: OCC(F)(F)C(F)(F)C(F)(F)C(F)(F)C(F)(F)C(F)(F)F [6:1 Fluorotelomer alcohol] (in DMSO); details: 2200 nM
Procedure: as §1

Row | Test System | level (log10) [1] | level (log10) [2] | level (log10) [3] | level (log10) (Hexafluoroglutaric acid; 2200 nM) | level (log10) (Hexafluoroglutaric acid; 6700 nM) | level (log10) (Hexafluoroglutaric acid; 20000 nM) | level (log10) (Hexafluoroglutaric acid; 60000 nM) | level (log10) [4] | level (log10) [5] | level (log10) [6] | level (log10) ([7]; 2200 nM) | level (log10) ([7]; 6700 nM) | level (log10) ([7]; 20000 nM) | level (log10) ([7]; 60000 nM) | level (log10) ([8]; 2200 nM) | level (log10) ([8]; 6700 nM) | level (log10) ([8]; 20000 nM) | level (log10) ([8]; 60000 nM) | level (log10) [9] | level (log10) [10] | level (log10) [11] | level (log10) [12] | level (log10) [13] | level (log10) [14] | level (log10) (Perfluorohexanoic acid; 2200 nM) | level (log10) (Perfluorohexanoic acid; 6700 nM) | level (log10) (Perfluorohexanoic acid; 20000 nM) | level (log10) (Perfluorohexanoic acid; 60000 nM) | level (log10) [15]
1 | 3C:CD87/uPAR | 0.014 ± 0.0014 | -0.033 ± 0.0042 | 0.006 ± 0.017 | -0.0005 ± 0.035 | -0.0075 ± 0.018 | -0.0105 ± 0.028 | 0.0025 ± 0.013 | -0.015 ± 0.05 | -0.0015 ± 0.0021 | 0.019 ± 0.025 | 0.0065 ± 0.036 | -0.016 ± 0.054 | -0.0085 ± 0.028 | -0.042 ± 0.021 | -0.0295 ± 0.0021 | -0.007 ± 0.027 | -0.0075 ± 0.00071 | -0.0235 ± 0.022 | 0.006 ± 0.0057 | -0.0065 ± 0.0021 | -0.005 ± 0.041 | 0.0465 ± 0.021 | 0.0045 ± 0.0078 | -0.0425 ± 0.022 | -0.0105 ± 0.0064 | -0.0065 ± 0.0035 | -0.0115 ± 0.00071 | -0.01 ± 0.0099 | 0.005
2 | BE3C:CXCL9/MIG | -0.0055 ± 0.0021 | 0.022 ± 0.04 | 0.0025 ± 0.0092 | -0.0065 ± 0.021 | 0.001 ± 0.0042 | 0.008 | -0.0055 ± 0.0021 | 0.0005 ± 0.026 | 0.018 ± 0.011 | -0.002 ± 0.021 | 0.0015 ± 0.005 | 0.0065 ± 0.013 | 0.0045 ± 0.005 | 0 ± 0.0042 | 0.009 ± 0.018 | 0.01 ± 0.034 | 0.0025 ± 0.023 | 0.013 ± 0.0057 | 0.008 ± 0.0099 | 0.006 ± 0.0085 | -0.006 ± 0.023 | 0.024 ± 0.0042 | 0.0065 ± 0.00071 | 0.002 ± 0.018 | 0.004 ± 0.014 | 0.005 ± 0.0014 | 0 ± 0.0099 | 0.001 ± 0.0099 | 0.002 ± 0.0014
3 | LPS:CD106/VCAM-1 | 0.0015 ± 0.0021 | 0.011 ± 0.0071 | 0.002 ± 0.011 | -0.002 ± 0.027 | -0.006 ± 0.016 | -0.015 ± 0.024 | -0.005 ± 0.0071 | -0.004 ± 0.024 | -0.0085 ± 0.00071 | -0.0105 ± 0.021 | -0.018 ± 0.013 | -0.0285 ± 0.016 | -0.016 ± 0.0071 | -0.0195 ± 0.011 | 0.01 ± 0.024 | -0.0055 ± 0.012 | 0.0175 ± 0.011 | 0.03 ± 0.0014 | -0.008 ± 0.0057 | -0.003 ± 0.0071 | -0.0045 ± 0.018 | 0.0055 ± 0.018 | -0.004 ± 0.0057 | -0.0095 ± 0.029 | -0.0075 ± 0.00071 | -0.0025 ± 0.0035 | -0.0055 ± 0.0035 | 0.008 ± 0.0042 | -0.0295 ± 0.00071
4 | SAg:CCL2/MCP-1 | 0.007 ± 0.033 | 0.0145 ± 0.094 | 0.025 ± 0.023 | -0.0485 ± 0.015 | -0.028 ± 0.0071 | -0.0205 ± 0.0035 | -0.0205 ± 0.016 | -0.0095 ± 0.026 | -0.0005 ± 0.013 | 0.0075 ± 0.0064 | 0.0345 ± 0.057 | -0.0245 ± 0.04 | 0.004 ± 0.017 | 0.0305 ± 0.059 | -0.0055 ± 0.05 | -0.0225 ± 0.0092 | -0.0075 ± 0.0064 | 0.0185 ± 0.033 | 0.0045 ± 0.015 | 0.0175 ± 0.0064 | 0.0005 ± 0.0021 | -0.0165 ± 0.018 | 0.0215 ± 0.0092 | -0.0045 ± 0.016 | -0.001 ± 0.047 | -0.01 ± 0.0057 | -0.0255 ± 0.0078 | 0.0135 ± 0.018 | 0.005 ± 0.04
5 | BF4T:IL-1alpha | 0.012 ± 0.013 | -0.0035 ± 0.011 | 0.0155 ± 0.021 | -0.0145 ± 0.026 | -0.0065 ± 0.015 | -0.0195 ± 0.0035 | -0.0045 ± 0.033 | -0.001 ± 0.0057 | -0.006 ± 0.016 | 0.011 ± 0.027 | 0.021 ± 0.0042 | 0.018 ± 0.03 | 0.0055 ± 0.036 | -0.0085 ± 0.021 | 0.03 ± 0.03 | 0.0135 ± 0.00071 | 0.0135 ± 0.016 | 0.011 ± 0.016 | -0.0035 ± 0.019 | -0.007 ± 0.016 | 0.006 ± 0.031 | 0.0115 ± 0.0064 | 0.008 ± 0.0028 | -0.001 ± 0.016 | 0.003 ± 0.025 | -0.001 ± 0.0042 | -0.0035 ± 0.012 | 0.007 ± 0.0042 | -0.047 ± 0.062
6 | BF4T:PAI-I | 0.0215 ± 0.0021 | 0.0045 ± 0.021 | 0.008 ± 0.021 | 0.0045 ± 0.035 | -0.0085 ± 0.022 | -0.002 ± 0.021 | 0.0165 ± 0.011 | 0.0115 ± 0.018 | 0.016 ± 0.0028 | 0.0095 ± 0.011 | 0.0035 ± 0.0021 | -0.004 ± 0.0028 | 0.001 ± 0.0042 | 0.005 ± 0.0028 | 0.003 ± 0.0028 | -0.0075 ± 0.0092 | -0.005 ± 0.0042 | 0.0015 ± 0.005 | 0.014 ± 0.027 | 0.0045 ± 0.005 | 0.005 ± 0.042 | 0.012 ± 0.017 | 0.0035 ± 0.00071 | 0.0105 ± 0.028 | 0.003 ± 0.0085 | 0.011 | 0.004 ± 0.0028 | 0.0145 ± 0.0064 | -0.114 ± 0.15
7 | KF3CT:CXCL10/IP-10 | 0.006 ± 0.0085 | 0.033 ± 0.0071 | 0.0005 ± 0.0021 | -0.0035 ± 0.013 | -0.001 | -0.01 ± 0.0014 | 0.005 ± 0.0014 | 0.0255 ± 0.0092 | 0.023 ± 0.031 | -0.0025 ± 0.005 | -0.009 ± 0.0042 | -0.017 ± 0.0085 | 0.004 ± 0.0057 | 0.005 ± 0.0042 | 0.034 ± 0.037 | 0.0305 ± 0.025 | 0.0385 ± 0.028 | 0.0405 ± 0.019 | -0.0025 ± 0.0078 | 0.0005 ± 0.005 | -0.009 ± 0.021 | 0.007 ± 0.031 | -0.0005 ± 0.0021 | 0.012 ± 0.023 | 0.005 ± 0.0028 | 0.0045 ± 0.0092 | 0.0045 ± 0.005 | 0.017 ± 0.0014 | -0.0035 ± 0.005
8 | SAg:CD38 | 0 ± 0.027 | 0.0245 ± 0.0092 | 0.0215 ± 0.018 | 0.002 ± 0.021 | -0.002 ± 0.0071 | -0.0075 ± 0.00071 | 0.0075 ± 0.021 | -0.0055 ± 0.0078 | -0.0045 ± 0.019 | 0.0005 ± 0.021 | 0.013 ± 0.0014 | 0.003 ± 0.011 | 0.008 ± 0.0085 | -0.0055 ± 0.019 | 0.0045 ± 0.0092 | -0.005 ± 0.0028 | -0.0085 ± 0.0064 | -0.0155 ± 0.00071 | 0 ± 0.017 | 0.059 ± 0.023 | 0.0015 ± 0.015 | -0.012 ± 0.02 | 0.0065 ± 0.0035 | -0.013 ± 0.017 | -0.0045 ± 0.0078 | 0.003 ± 0.023 | -0.004 ± 0.0014 | -0.0005 ± 0.025 | 0.0335 ± 0.05

Whole records from above. Order of values: level (log10) [1] | level (log10) [2] | level (log10) [3] | level (log10) (Hexafluoroglutaric acid; 2200 nM) | level (log10) (Hexafluoroglutaric acid; 6700 nM) | level (log10) (Hexafluoroglutaric acid; 20000 nM) | level (log10) (Hexafluoroglutaric acid; 60000 nM) | level (log10) [4] | level (log10) [5] | level (log10) [6] | level (log10) ([7]; 2200 nM) | level (log10) ([7]; 6700 nM) | level (log10) ([7]; 20000 nM) | level (log10) ([7]; 60000 nM) | level (log10) ([8]; 2200 nM) | level (log10) ([8]; 6700 nM) | level (log10) ([8]; 20000 nM) | level (log10) ([8]; 60000 nM) | level (log10) [9] | level (log10) [10] | level (log10) [11] | level (log10) [12] | level (log10) [13] | level (log10) [14] | level (log10) (Perfluorohexanoic acid; 2200 nM) | level (log10) (Perfluorohexanoic acid; 6700 nM) | level (log10) (Perfluorohexanoic acid; 20000 nM) | level (log10) (Perfluorohexanoic acid; 60000 nM) | level (log10) [15]
KF3CT:CXCL10/IP-10 is listed as 0.006 ± 0.0085 | 0.033 ± 0.0071 | 0.0005 ± 0.0021 | -0.0035 ± 0.013 | -0.001 | -0.01 ± 0.0014 | 0.005 ± 0.0014 | 0.0255 ± 0.0092 | 0.023 ± 0.031 | -0.0025 ± 0.005 | -0.009 ± 0.0042 | -0.017 ± 0.0085 | 0.004 ± 0.0057 | 0.005 ± 0.0042 | 0.034 ± 0.037 | 0.0305 ± 0.025 | 0.0385 ± 0.028 | 0.0405 ± 0.019 | -0.0025 ± 0.0078 | 0.0005 ± 0.005 | -0.009 ± 0.021 | 0.007 ± 0.031 | -0.0005 ± 0.0021 | 0.012 ± 0.023 | 0.005 ± 0.0028 | 0.0045 ± 0.0092 | 0.0045 ± 0.005 | 0.017 ± 0.0014 | -0.0035 ± 0.005
SAg:CD38 is listed as 0 ± 0.027 | 0.0245 ± 0.0092 | 0.0215 ± 0.018 | 0.002 ± 0.021 | -0.002 ± 0.0071 | -0.0075 ± 0.00071 | 0.0075 ± 0.021 | -0.0055 ± 0.0078 | -0.0045 ± 0.019 | 0.0005 ± 0.021 | 0.013 ± 0.0014 | 0.003 ± 0.011 | 0.008 ± 0.0085 | -0.0055 ± 0.019 | 0.0045 ± 0.0092 | -0.005 ± 0.0028 | -0.0085 ± 0.0064 | -0.0155 ± 0.00071 | 0 ± 0.017 | 0.059 ± 0.023 | 0.0015 ± 0.015 | -0.012 ± 0.02 | 0.0065 ± 0.0035 | -0.013 ± 0.017 | -0.0045 ± 0.0078 | 0.003 ± 0.023 | -0.004 ± 0.0014 | -0.0005 ± 0.025 | 0.0335 ± 0.05
